Where a name gives a salt, the structure may show the parent alone. The list shows a part of the results. The calls rarely recur for the same compound in another form.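 Kinases were expressed as nanoluciferase fusions in K562 cells and luminescence was read every 4 h between 2 and 18 h as percent of control, DMSO set to 100% and a positive control to 0%. A time point counts as decreased when the signal drops significantly (2 sigma). The hit call is the authors' own, does not follow from the count of time points alone, and its rule is not shown.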
Tests used:
Experiment in all cases: kinase-Nluc reporter destabilization hit call (1 = scored as downregulated) (binary); higher = compound decreases kinase abundance
Conditions in all cases: K562; 2-18 h
[1] = biological target: MAPK1 (UniProt P28482)
[2] = biological target: MAPK4 (UniProt P31152)
[3] = biological target: MAPKAPK2 (UniProt P49137)
[4] = biological target: MKNK1 (UniProt Q9BUB5)
[5] = biological target: NTRK2 (UniProt Q16620)
[6] = biological target: NTRK3 (UniProt Q16288)
[7] = biological target: PAK4 (UniProt O96013)
[8] = biological target: PBK (UniProt Q96KB5)
[9] = biological target: PDGFRB (UniProt P09619)
[10] = biological target: PDK1 (UniProt Q15118)

Chains of the proteins cited; added tags and fusions are not shown. Lines headed by an entry give the natural chain unless they say otherwise; changes in a name come on top.
UniProt P28482, whole entry: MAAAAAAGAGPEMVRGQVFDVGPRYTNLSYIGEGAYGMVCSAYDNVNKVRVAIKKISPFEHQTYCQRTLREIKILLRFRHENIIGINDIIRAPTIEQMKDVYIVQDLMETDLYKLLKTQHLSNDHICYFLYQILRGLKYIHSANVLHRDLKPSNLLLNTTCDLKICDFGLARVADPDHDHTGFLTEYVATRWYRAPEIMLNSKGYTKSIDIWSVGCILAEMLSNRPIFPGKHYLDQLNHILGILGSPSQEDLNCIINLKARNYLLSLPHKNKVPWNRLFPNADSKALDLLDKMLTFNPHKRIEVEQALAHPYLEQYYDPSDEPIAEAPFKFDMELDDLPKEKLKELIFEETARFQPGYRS
UniProt P31152, whole entry: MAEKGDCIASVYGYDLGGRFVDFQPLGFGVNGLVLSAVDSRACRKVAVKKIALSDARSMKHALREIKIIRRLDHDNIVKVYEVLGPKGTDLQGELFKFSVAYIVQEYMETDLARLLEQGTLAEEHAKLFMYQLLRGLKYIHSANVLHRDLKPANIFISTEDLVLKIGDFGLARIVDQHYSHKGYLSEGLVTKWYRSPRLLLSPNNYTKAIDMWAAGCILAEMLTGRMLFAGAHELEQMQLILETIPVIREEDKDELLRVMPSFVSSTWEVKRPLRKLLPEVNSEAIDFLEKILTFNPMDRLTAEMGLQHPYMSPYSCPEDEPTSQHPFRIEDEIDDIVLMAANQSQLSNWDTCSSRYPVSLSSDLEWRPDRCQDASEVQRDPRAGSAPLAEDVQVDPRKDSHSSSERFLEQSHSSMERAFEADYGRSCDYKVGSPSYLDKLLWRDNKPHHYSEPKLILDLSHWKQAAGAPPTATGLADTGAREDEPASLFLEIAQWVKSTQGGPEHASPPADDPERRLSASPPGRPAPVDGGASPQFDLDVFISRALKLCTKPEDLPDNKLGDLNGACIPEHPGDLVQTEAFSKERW
UniProt P49137, whole entry, looked up: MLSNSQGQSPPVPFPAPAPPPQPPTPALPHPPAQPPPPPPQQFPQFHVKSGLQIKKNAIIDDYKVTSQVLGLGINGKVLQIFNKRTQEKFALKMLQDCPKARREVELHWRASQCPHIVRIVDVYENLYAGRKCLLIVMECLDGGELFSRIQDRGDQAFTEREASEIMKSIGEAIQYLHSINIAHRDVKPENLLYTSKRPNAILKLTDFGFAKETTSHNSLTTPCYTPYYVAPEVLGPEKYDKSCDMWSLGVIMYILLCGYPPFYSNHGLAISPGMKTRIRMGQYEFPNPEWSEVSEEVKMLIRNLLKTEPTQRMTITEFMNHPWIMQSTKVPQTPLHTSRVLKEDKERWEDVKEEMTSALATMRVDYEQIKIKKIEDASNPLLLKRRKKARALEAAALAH
UniProt Q9BUB5: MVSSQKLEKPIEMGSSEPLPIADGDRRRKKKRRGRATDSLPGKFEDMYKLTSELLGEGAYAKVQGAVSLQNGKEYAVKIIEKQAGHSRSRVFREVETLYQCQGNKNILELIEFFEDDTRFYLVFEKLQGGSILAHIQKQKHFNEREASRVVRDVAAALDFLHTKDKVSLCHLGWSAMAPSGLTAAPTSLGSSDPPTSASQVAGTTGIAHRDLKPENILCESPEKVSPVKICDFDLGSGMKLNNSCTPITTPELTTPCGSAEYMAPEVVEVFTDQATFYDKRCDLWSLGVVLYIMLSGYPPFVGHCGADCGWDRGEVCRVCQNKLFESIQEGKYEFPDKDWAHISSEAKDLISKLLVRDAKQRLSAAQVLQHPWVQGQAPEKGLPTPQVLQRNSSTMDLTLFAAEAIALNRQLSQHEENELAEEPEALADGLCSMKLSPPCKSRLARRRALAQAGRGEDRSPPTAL
UniProt Q16620, whole entry, looked up: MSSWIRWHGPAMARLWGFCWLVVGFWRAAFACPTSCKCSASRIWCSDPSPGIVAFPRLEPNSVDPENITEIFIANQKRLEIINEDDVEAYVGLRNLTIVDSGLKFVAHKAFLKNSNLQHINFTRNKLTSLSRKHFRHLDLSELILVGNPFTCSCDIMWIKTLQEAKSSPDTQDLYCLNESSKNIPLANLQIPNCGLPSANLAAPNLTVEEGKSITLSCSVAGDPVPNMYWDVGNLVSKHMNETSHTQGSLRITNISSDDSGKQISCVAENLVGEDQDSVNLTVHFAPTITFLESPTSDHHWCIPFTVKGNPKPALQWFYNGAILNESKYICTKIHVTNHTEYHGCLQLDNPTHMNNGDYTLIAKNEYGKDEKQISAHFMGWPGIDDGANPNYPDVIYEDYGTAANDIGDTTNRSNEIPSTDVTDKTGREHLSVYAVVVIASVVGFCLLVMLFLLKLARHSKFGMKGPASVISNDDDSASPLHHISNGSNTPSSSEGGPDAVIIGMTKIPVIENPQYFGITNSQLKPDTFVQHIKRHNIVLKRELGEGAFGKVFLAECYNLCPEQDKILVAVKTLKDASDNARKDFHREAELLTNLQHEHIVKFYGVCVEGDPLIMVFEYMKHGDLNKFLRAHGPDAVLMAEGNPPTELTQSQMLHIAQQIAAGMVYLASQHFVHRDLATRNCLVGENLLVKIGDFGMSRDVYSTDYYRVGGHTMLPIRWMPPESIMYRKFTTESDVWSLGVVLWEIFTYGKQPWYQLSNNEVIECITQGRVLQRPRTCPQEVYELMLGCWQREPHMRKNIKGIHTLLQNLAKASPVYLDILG
UniProt Q16288, whole entry, looked up: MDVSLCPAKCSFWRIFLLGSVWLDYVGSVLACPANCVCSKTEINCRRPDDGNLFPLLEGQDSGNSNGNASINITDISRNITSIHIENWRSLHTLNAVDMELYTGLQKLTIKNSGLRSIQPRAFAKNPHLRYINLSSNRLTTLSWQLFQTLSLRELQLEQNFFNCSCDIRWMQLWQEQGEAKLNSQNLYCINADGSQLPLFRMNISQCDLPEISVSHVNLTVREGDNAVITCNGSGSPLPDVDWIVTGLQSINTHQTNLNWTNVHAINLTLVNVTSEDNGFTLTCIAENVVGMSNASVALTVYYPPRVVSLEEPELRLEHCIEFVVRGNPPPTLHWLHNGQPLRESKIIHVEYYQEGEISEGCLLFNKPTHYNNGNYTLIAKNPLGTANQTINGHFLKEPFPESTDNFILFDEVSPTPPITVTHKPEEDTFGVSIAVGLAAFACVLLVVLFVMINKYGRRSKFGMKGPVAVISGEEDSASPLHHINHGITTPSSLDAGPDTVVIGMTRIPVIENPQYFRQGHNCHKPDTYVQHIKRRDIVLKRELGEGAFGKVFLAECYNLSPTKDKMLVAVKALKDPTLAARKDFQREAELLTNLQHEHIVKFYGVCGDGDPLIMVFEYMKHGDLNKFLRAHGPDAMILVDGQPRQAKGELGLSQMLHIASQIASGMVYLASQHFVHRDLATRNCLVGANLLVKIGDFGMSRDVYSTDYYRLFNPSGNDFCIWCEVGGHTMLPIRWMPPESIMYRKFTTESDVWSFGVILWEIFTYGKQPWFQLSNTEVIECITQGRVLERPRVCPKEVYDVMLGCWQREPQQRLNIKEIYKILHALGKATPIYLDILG
UniProt O96013: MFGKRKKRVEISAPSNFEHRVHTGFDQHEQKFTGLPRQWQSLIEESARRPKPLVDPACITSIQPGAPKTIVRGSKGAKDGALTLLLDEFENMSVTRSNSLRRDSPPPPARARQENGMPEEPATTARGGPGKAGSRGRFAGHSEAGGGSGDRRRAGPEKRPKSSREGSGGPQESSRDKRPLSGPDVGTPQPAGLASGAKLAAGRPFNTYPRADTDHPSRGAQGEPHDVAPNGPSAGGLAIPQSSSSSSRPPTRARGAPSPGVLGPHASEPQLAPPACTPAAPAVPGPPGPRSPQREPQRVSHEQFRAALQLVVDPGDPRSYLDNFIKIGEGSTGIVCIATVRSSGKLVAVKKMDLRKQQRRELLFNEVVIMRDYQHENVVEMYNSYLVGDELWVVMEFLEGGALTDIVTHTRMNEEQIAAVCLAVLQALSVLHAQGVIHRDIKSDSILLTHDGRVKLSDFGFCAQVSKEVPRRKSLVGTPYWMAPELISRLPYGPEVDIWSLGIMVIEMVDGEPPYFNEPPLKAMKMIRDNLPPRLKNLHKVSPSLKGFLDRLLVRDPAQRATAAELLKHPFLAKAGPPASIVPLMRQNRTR
UniProt Q96KB5: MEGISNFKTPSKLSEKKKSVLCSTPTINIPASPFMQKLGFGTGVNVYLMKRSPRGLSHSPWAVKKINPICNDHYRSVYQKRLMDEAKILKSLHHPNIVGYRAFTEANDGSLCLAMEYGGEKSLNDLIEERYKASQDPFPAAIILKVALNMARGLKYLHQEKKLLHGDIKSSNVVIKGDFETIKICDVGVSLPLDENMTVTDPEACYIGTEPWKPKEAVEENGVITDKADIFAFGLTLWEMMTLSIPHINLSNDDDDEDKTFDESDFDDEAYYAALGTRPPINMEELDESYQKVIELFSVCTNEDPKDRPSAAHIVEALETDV
UniProt P09619, whole entry: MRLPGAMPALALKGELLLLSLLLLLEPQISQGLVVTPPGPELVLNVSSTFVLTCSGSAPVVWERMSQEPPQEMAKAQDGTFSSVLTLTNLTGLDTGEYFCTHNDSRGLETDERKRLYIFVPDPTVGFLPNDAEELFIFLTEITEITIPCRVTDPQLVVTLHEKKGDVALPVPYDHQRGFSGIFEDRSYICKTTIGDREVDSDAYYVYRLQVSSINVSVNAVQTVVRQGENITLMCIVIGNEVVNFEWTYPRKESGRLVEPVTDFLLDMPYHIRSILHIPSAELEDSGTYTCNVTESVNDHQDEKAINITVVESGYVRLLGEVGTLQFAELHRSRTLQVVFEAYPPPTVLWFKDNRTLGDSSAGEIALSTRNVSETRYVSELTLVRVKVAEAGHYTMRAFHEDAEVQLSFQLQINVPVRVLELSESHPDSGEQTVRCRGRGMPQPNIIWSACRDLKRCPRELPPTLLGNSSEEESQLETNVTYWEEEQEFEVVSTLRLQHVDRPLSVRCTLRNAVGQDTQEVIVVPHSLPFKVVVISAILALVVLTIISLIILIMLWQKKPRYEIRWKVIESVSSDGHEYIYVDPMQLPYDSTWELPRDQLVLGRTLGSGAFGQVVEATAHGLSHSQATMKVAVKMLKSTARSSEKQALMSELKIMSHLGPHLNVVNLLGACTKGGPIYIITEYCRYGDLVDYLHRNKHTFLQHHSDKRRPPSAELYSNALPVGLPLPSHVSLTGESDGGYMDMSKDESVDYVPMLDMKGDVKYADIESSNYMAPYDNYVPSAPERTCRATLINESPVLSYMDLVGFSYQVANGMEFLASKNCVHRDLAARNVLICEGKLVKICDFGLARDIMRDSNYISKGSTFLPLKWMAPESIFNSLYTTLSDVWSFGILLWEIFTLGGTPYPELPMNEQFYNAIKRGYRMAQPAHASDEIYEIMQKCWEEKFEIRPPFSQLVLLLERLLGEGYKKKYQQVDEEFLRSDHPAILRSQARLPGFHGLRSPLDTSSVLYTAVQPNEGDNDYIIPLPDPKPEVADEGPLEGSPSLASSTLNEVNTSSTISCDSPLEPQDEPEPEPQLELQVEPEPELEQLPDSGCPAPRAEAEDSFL
UniProt Q15118, whole entry, looked up: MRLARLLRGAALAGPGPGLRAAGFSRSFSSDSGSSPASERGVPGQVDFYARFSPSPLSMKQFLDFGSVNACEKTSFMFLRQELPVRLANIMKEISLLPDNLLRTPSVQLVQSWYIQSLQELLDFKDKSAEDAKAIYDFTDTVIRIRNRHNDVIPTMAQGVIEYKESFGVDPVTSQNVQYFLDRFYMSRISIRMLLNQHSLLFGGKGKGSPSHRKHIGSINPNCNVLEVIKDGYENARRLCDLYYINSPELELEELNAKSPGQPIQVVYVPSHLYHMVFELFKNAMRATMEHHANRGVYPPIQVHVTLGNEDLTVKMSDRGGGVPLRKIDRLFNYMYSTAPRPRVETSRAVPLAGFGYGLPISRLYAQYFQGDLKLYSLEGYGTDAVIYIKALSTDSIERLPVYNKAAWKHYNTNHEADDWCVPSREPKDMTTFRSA

Measured: kinase-Nluc reporter destabilization hit call

Nc1n[nH]c2cc(-c3ccc(=O)n(Cc4cccc(Cl)c4)c3)ccc12 (10 µM)
inactive: [1] 0 | [2] 0 | [3] 0 | [4] 0 | [5] 0 | [6] 0 | [7] 0 | [8] 0 | [9] 0 | [10] 0

O=C(NOCCO)c1ccc2cncn2c1Nc1ccc(I)cc1F (10 µM)
inactive: [1] 0 | [2] 0 | [3] 0 | [4] 0 | [5] 0 | [6] 0 | [7] 0 | [8] 0 | [9] 0 | [10] 0

COc1cc(C(=O)N2CCC(N3CCN(C)CC3)CC2)ccc1Nc1ncc2c(n1)N(C)c1ccccc1C(=O)N2C (10 µM)
inactive: [1] 0 | [2] 0 | [3] 0 | [4] 0 | [5] 0 | [6] 0 | [7] 0 | [8] 0 | [9] 0 | [10] 0

C[C@@H]1CCc2ncc(F)cc2[C@H]2CCCN2c2ccn3ncc(c3n2)C(=O)N1 [Selitrectinib] (10 µM)
inactive: [1] 0 | [2] 0 | [3] 0 | [4] 0 | [5] 0 | [6] 0 | [7] 0 | [8] 0 | [9] 0 | [10] 0

O=C1NC(=O)C(=Cc2ccc3c(c2)OCO3)S1 (10 µM)
inactive: [1] 0 | [2] 0 | [3] 0 | [4] 0 | [5] 0 | [6] 0 | [7] 0 | [8] 0 | [9] 0 | [10] 0

C[C@@H]1C[C@H]2O[C@@]3(O[C@@H]2C(C)(C)O)[C@H](O)[C@@]2(C)[C@@H]4CC[C@H]5C(C)(C)[C@@H](O[C@@H]6OC[C@H](O)[C@H](O)[C@H]6O)CC[C@@]56C[C@@]46CC[C@]2(C)[C@@H]13 [Cimiracemoside C] (10 µM)
inactive: [1] 0 | [2] 0 | [3] 0 | [4] 0 | [5] 0 | [6] 0 | [7] 0 | [8] 0 | [9] 0 | [10] 0

COc1ccccc1/C=C1\C(=O)Nc2ccccc21 (10 µM)
inactive: [1] 0 | [2] 0 | [3] 0 | [4] 0 | [5] 0 | [6] 0 | [7] 0 | [8] 0 | [9] 0 | [10] 0

C=C[C@H]1[C@H](O[C@@H]2O[C@H](CO)[C@@H](O)[C@H](O)[C@H]2OC(=O)c2c(O)cc(O)cc2-c2cccc(O)c2)OC=C2C(=O)OCC[C@H]21 [Amarogentin] (10 µM)
inactive: [1] 0 | [2] 0 | [3] 0 | [4] 0 | [5] 0 | [6] 0 | [7] 0 | [8] 0 | [9] 0 | [10] 0

O=S(=O)(c1cccc2cnccc12)N1CCNCC1 (10 µM)
inactive: [1] 0 | [2] 0 | [3] 0 | [4] 0 | [5] 0 | [6] 0 | [7] 0 | [8] 0 | [9] 0 | [10] 0

CCN1C(=O)CNc2ncc(-c3ccc(-c4nc[nH]n4)nc3C)nc21 [CC-115 (hydrochloride)] (2.5 µM)
inactive: [1] 0 | [2] 0 | [3] 0 | [4] 0 | [5] 0 | [6] 0 | [7] 0 | [8] 0 | [9] 0 | [10] 0

CC(C)c1cnn2c(NCc3ccccc3-n3cccn3)nc(OC3CCCNC3)nc12 (stereo not given) (2.5 µM)
inactive: [1] 0 | [2] 0 | [3] 0 | [4] 0 | [5] 0 | [6] 0 | [7] 0 | [8] 0 | [9] 0 | [10] 0

Cc1ccc(-c2nn(C(C)(C)CNC(=O)c3ccncc3)c3ncnc(N)c23)cc1 (2.5 µM)
inactive: [1] 0 | [2] 0 | [3] 0 | [4] 0 | [5] 0 | [6] 0 | [7] 0 | [8] 0 | [9] 0 | [10] 0

Nc1cc(C(F)(F)F)c(-c2nc(N3CCOCC3)nc(N3CCOCC3)n2)cn1 [Bimiralisib] (10 µM)
inactive: [1] 0 | [2] 0 | [3] 0 | [4] 0 | [5] 0 | [6] 0 | [7] 0 | [8] 0 | [9] 0 | [10] 0

Cc1cc(C(C)Nc2ccccc2)c2nc(N3CCOCC3)cc(=O)n2c1 (stereo not given) (10 µM)
inactive: [1] 0 | [2] 0 | [3] 0 | [4] 0 | [5] 0 | [6] 0 | [7] 0 | [8] 0 | [9] 0 | [10] 0

Cc1cccc(-c2[nH]ncc2-c2ccc3ncccc3n2)n1 (10 µM)
inactive: [1] 0 | [2] 0 | [3] 0 | [4] 0 | [5] 0 | [6] 0 | [7] 0 | [8] 0 | [9] 0 | [10] 0

O=C1NC(=O)/C(=C/c2ccc(-c3ccc(F)cc3O)o2)S1 (10 µM)
inactive: [1] 0 | [2] 0 | [3] 0 | [4] 0 | [5] 0 | [6] 0 | [7] 0 | [8] 0 | [9] 0 | [10] 0

A draw from above in order of molecular weight, rising:
Cc1cccc(-c2[nH]ncc2-c2ccc3ncccc3n2)n1 (10 µM)
inactive: [1] 0 | [2] 0 | [3] 0 | [4] 0 | [5] 0 | [6] 0 | [7] 0 | [8] 0 | [9] 0 | [10] 0

O=C1NC(=O)/C(=C/c2ccc(-c3ccc(F)cc3O)o2)S1 (10 µM)
inactive: [1] 0 | [2] 0 | [3] 0 | [4] 0 | [5] 0 | [6] 0 | [7] 0 | [8] 0 | [9] 0 | [10] 0

Cc1ccc(-c2nn(C(C)(C)CNC(=O)c3ccncc3)c3ncnc(N)c23)cc1 (2.5 µM)
inactive: [1] 0 | [2] 0 | [3] 0 | [4] 0 | [5] 0 | [6] 0 | [7] 0 | [8] 0 | [9] 0 | [10] 0

Additional results follow.

CCCC(=O)Nc1nc2c(ncn2[C@@H]2O[C@@H]3COP(=O)(O)O[C@H]3[C@H]2OC(=O)CCC)c(=O)[nH]1 [Dibutyryl-cGMP (sodium)] (10 µM)
inactive: [1] 0 | [2] 0 | [3] 0 | [4] 0 | [5] 0 | [6] 0 | [7] 0 | [8] 0 | [9] 0 | [10] 0

O=c1ccc2ccc(O)c(O)c2o1 [Daphnetin] (10 µM)
inactive: [1] 0 | [2] 0 | [3] 0 | [4] 0 | [5] 0 | [6] 0 | [7] 0 | [8] 0 | [9] 0 | [10] 0

O=C(O)c1ccccc1Nc1cccc(C(F)(F)F)c1 [Flufenamic acid] (10 µM)
inactive: [1] 0 | [2] 0 | [3] 0 | [4] 0 | [5] 0 | [6] 0 | [7] 0 | [8] 0 | [9] 0 | [10] 0

Nc1ncc(-c2ccc(C(=O)N3CCNCC3)cc2)nc1-c1ccc(C(F)(F)F)cc1 (10 µM)
inactive: [1] 0 | [2] 0 | [3] 0 | [4] 0 | [5] 0 | [6] 0 | [7] 0 | [8] 0 | [9] 0 | [10] 0

O=C(CO)N1CCC(c2n[nH]c(-c3ccc(Cl)cc3)c2-c2ccncn2)CC1 (10 µM)
inactive: [1] 0 | [2] 0 | [3] 0 | [4] 0 | [5] 0 | [6] 0 | [7] 0 | [8] 0 | [9] 0 | [10] 0

CC(C)c1ccc(CC(=O)N2CCN(c3ccc(C#N)nn3)CC2)cc1 (10 µM)
inactive: [1] 0 | [2] 0 | [3] 0 | [4] 0 | [5] 0 | [6] 0 | [7] 0 | [8] 0 | [9] 0 | [10] 0

COc1c(O)cc2oc3cc(O)c(CC=C(C)C)c(O)c3c(=O)c2c1CCC(C)(C)O [Garcinone D] (2.5 µM)
inactive: [1] 0 | [2] 0 | [3] 0 | [4] 0 | [5] 0 | [6] 0 | [7] 0 | [8] 0 | [9] 0 | [10] 0

CCc1cccc(CC)c1NC(=O)c1nn(C)c2c1CCc1cnc(Nc3ccc(C(=O)NC4CCN(C)CC4)cc3OC(F)(F)F)nc1-2 (2 µM)
inactive: [1] 0 | [2] 0 | [3] 0 | [4] 0 | [5] 0 | [6] 0 | [7] 0 | [8] 0 | [9] 0 | [10] 0

c1cc(-c2cnn3cc(-c4ccc(N5CCNCC5)cc4)cnc23)c2cccnc2c1 (2.5 µM)
inactive: [1] 0 | [2] 0 | [3] 0 | [4] 0 | [5] 0 | [6] 0 | [7] 0 | [8] 0 | [9] 0 | [10] 0

CNC(=O)c1ccc(-c2cnc3cnc(-c4ccccc4)cn23)cc1 (10 µM)
inactive: [1] 0 | [2] 0 | [3] 0 | [4] 0 | [5] 0 | [6] 0 | [7] 0 | [8] 0 | [9] 0 | [10] 0

CC(C)N(C)c1nc2cc(C(=O)O)ccc2nc1-c1ccc(F)cc1 (10 µM)
inactive: [1] 0 | [2] 0 | [3] 0 | [4] 0 | [5] 0 | [6] 0 | [7] 0 | [8] 0 | [9] 0 | [10] 0

Cn1ncc(Cl)c1-c1cc(C(=O)N[C@H](CN)Cc2ccc(F)c(F)c2)sc1Cl (10 µM)
inactive: [1] 0 | [2] 0 | [3] 0 | [4] 0 | [5] 0 | [6] 0 | [7] 0 | [8] 0 | [9] 0 | [10] 0
